Assay results: patent publication US8198291B2, “Intranasal opioid compositions” (University of Kentucky Research Foundation, priority 2000, dated 2012)

## CN1CC[C@]23c4c5ccc(O)c4O[C@H]2C(=O)CC[C@H]3[C@H]1C5.Cl [hydromorphone HCL]
After 2 mg IN dose
  nasal irritation: not observed
After single IN doses
  local administration effect of the formulation: bitter taste
